# Measured values from paper PMC12431657, “Discovery and mechanistic insights of dibenzoylmethane as a broad spectrum inhibitor of coronavirus” (PLOS Pathogens, 2025).
# Like-named read-outs stand apart in the source and are kept apart here. Among all 3,300 compounds or so, about 95 (3%) showed an effect of 50% or more. Some of the results follow.
# System: HCoV-229E
# Parameters: species or system Huh-7; HTS, protection from HCoV-229E induced cell death, luminescent cell viability (CellCounting-Lite 2.0), inhibition rate
# Details: 24 h post infection, 1 h compound pre-incubation, 10 µM, inhibitor
SMILES,229E Inhibition rate [%],"229E Inhibition rate (229E Inhibition rate, 24 h) [%]"
C[C@@H]1O[C@@H](OC[C@H]2O[C@@H](Oc3c(-c4ccc(O)cc4)oc4cc(O)cc(O)c4c3=O)[C@H](O[C@@H]3O[C@@H](C)[C@H](O)[C@@H](O)[C@H]3O)[C@@H](O)[C@H]2O)[C@H](O)[C@H](O)[C@H]1O [Mauritianin],0,–
C=C(C)[C@@H]1CC[C@]2(COC(C)=O)CC[C@]3(C)[C@H](CC[C@@H]4[C@@]5(C)CC[C@H](OC(C)=O)C(C)(C)[C@@H]5CC[C@]43C)[C@@H]12 [Betulin diacetate],4.9,–
"O=c1c(O)c(-c2ccccc2)oc2ccc(O)cc12 [3,6-Dihydroxyflavone]",26.4,–
O=C(O)[C@H]1CCCN1 [(R)-pyrrolidine-2-carboxylic acid],8,–
C=CC(C)(O)CCC=C(C)CCC=C(C)C (mixture of isomers) [Nerolidol],17.9,–
N[C@@H](CCO)C(=O)O [L-Homoserine],10.6,–
C/C=C(\CC[C@@H](C)[C@H]1CC[C@H]2[C@@H]3CC=C4C[C@@H](O)CC[C@]4(C)[C@H]3CC[C@]12C)C(C)C [Fucosterol],20.9,–
CC(C)=CCc1c(O)cc2oc3cc(O)c(O)c(CCC(C)(C)O)c3c(=O)c2c1O [Garcinone C],34.9,–
CC(C)=CC(=O)O [3-Methylbut-2-enoic acid],8.4,–
COc1ccc(-c2cc(=O)c3c(O)cc(O[C@@H]4O[C@H](CO)[C@@H](O)[C@H](O)[C@H]4O[C@@H]4O[C@@H](C)[C@H](O)[C@@H](O)[C@H]4O)cc3o2)cc1O [Neodiosmin],15.9,–
CC(=O)N[C@@H](Cc1c[nH]c2ccccc12)C(=O)O [N-Acetyl-L-tryptophan],7.5,–
C=C(C)[C@H](CC=C(C)C)Cc1c(O)cc(O)c2c1O[C@H](c1ccccc1O)CC2=O [Kushenol A],10.8,–
"COc1cc(OC)c2c(=O)cc(-c3ccccc3)oc2c1 [5,7-Dimethoxyflavone]",15.8,–
C=C1[C@@H]2CC[C@@H]3[C@](C2)(C(=O)[C@@H](O)[C@@H]2C(C)(C)[C@H]4CC(=O)[C@@]32CO4)[C@@H]1OC(C)=O [Maoecrystal A],10.4,–
O=c1cc(-c2ccc(O)cc2)oc2cc(O[C@@H]3O[C@H](CO)[C@@H](O)[C@H](O)[C@H]3O[C@@H]3OC[C@](O)(CO)[C@H]3O)cc(O)c12 [Apiin],7.9,–
COc1ccc(C2COc3cc(O[C@@H]4O[C@H](CO)[C@@H](O)[C@H](O)[C@H]4O)ccc3C2)c(O)c1OC (stereo partly drawn) [Isomucronulatol 7-O-glucoside],13,–
OCCc1c[nH]c2ccc(O)cc12 [5-Hydroxytryptophol],28.5,–
CC(C)=CCC[C@](C)(O)[C@H]1CC[C@]2(C)[C@@H]1[C@H](O)C[C@@H]1[C@@]3(C)CC[C@H](O[C@@H]4O[C@H](CO)[C@@H](O)[C@H](O)[C@H]4O[C@@H]4O[C@H](CO)[C@@H](O)[C@H](O)[C@H]4O)C(C)(C)[C@@H]3CC[C@]12C [20(S)-Ginsenoside Rg3],23.7,–
C[C@@H]1O[C@@H](O[C@H]2[C@H](O)[C@@H](O)[C@H](OC[C@H]3O[C@@H](OC(=O)[C@]45CCC(C)(C)C[C@H]4C4=CC[C@@H]6[C@@]7(C)CC[C@H](O[C@@H]8OC[C@H](O)[C@H](O)[C@H]8O)[C@@](C)(CO)[C@@H]7CC[C@@]6(C)[C@]4(C)CC5)[C@H](O)[C@@H](O)[C@@H]3O)O[C@@H]2CO)[C@H](O)[C@H](O)[C@H]1O [Cauloside D],–,0
C[C@@H]1O[C@@H](O[C@H]2[C@H](O[C@H]3[C@H](O[C@H]4CC[C@]5(C)[C@H]6CC=C7[C@@H]8CC(C)(C)CC[C@]8(C(=O)O)CC[C@@]7(C)[C@]6(C)CC[C@H]5C4(C)C)OC[C@H](O)[C@@H]3O)O[C@H](CO)[C@@H](O)[C@@H]2O)[C@H](O)[C@H](O)[C@H]1O [Raddeanin A],5,–
COC(=O)[C@H]1O[C@@H](O[C@H]2CC[C@]3(C)[C@H]4CC=C5[C@@H]6CC(C)(C)CC[C@]6(C(=O)O)CC[C@@]5(C)[C@]4(C)CC[C@H]3[C@]2(C)C=O)[C@H](O)[C@@H](O)[C@@H]1O [Gypsogenin-3-O-glucuronide],16.2,–
CC(=O)N[C@@H](CC(C)C)C(=O)N[C@@H](CC(C)C)C(=O)N[C@H](C=O)CCCNC(=N)N [Leupeptin (hemisulfate)],0,–
CCCCCC1C(=O)CCC1CC(=O)OC (stereo not drawn) [Methyl dihydrojasmonate],54.7,–
O=C1CCC[C@@H]2[C@H]3CCCN4CCC[C@@H](CN12)[C@@H]34 [Matrine],47.6,–
CC1(C)C[C@@H](O)[C@]2(C)CC[C@]3(C)C(=CC[C@@H]4[C@@]5(C)CC[C@H](O)[C@](C)(CO)[C@@H]5CC[C@]43C)[C@@H]2C1 [Soyasapogenol B],3.9,–
NCC(O)c1ccccc1 (stereo not drawn) [2-Amino-1-phenylethanol],5.2,–

SMILES,229E Inhibition rate [%],"229E Inhibition rate (229E Inhibition rate, 24 h) [%]"
C[C@H]1O[C@@H](O[C@H]2CC[C@@]3(C)[C@@H](CC[C@]4(C)[C@@H]3C=CC3=C5CC(C)(C)CC[C@]5(CO)[C@@H](O)C[C@]34C)[C@]2(C)CO)[C@H](O[C@@H]2O[C@H](CO)[C@@H](O)[C@H](O)[C@H]2O)[C@@H](O[C@@H]2O[C@H](CO)[C@@H](O)[C@H](O)[C@H]2O)[C@H]1O [Buddlejasaponin IVb],0,–
Oc1ccc2c(c1)OC[C@]1(O)Cc3cc(O)c(O)cc3[C@H]21 [Brazilin],12.2,–
O=c1ccc2cc3ccoc3cc2o1 [Psoralen],40.1,–
O=C(/C=C/c1ccc(O)c(O)c1)c1ccc(O[C@@H]2O[C@H](CO)[C@@H](O)[C@H](O)[C@H]2O)c(O)c1O [Marein],17.9,–
C=C(C)[C@@H]1CC[C@]2(C(=O)O)CC[C@]3(C)[C@H](CC[C@@H]4[C@@]5(C)CC[C@H](O)C(C)(C)[C@@H]5CC[C@]43C)[C@@H]12 [Betulinic acid],8.7,–
COC(=O)C[C@H]1[C@]2(C)C3=C(C)[C@H](c4ccoc4)C[C@H]3O[C@@H]2[C@@H]2OC(=O)[C@]3(C)C=CC(=O)[C@@]1(C)[C@@H]23 [Nimbolide],3.3,–
C[C@H]1CC[C@@]2(OC1)O[C@H]1C[C@H]3[C@@H]4CC=C5C[C@@H](O[C@@H]6O[C@@H](C)[C@H](O)[C@@H](O)[C@H]6O)C[C@@H](O[C@@H]6O[C@H](C)[C@H](O)[C@H](O)[C@H]6O)[C@]5(C)[C@H]4CC[C@]3(C)[C@H]1[C@@H]2C [Liriopesides B],38,–
O=C(O)[C@H]1CC[C@H](O)CC1 [trans-4-Hydroxycyclohexanecarboxylic acid],7,–
O=C(O)C1=C[C@@H](O)[C@@H](O)[C@H](O)C1 [Shikimic acid],8.6,–
Cc1ccc(C=O)s1 [5-Methyl-2-thiophenecarboxaldehyde],19.9,–
CNc1ncnc2c1ncn2[C@@H]1O[C@H](CO)[C@@H](O)[C@H]1O [N6-Methyladenosine],24.4,–
CO[C@@H]1[C@H](O)[C@@H](CO)O[C@H]1n1ccc(=O)[nH]c1=O [2′-O-Methyluridine],20.9,–
COc1cc(/C=C/C(=O)O[C@H]2CC[C@]34C[C@]35CC[C@]3(C)[C@@H]([C@H](C)CCC=C(C)C)CC[C@@]3(C)[C@@H]5CC[C@H]4C2(C)C)ccc1O [γ-Oryzanol],22.1,–
COc1cc(C(=O)OCCCCNC(=N)N)cc(OC)c1O [Leonurine],–,6.2
COC[C@@H]1Cc2cc(OC)c3c(c2[C@H](c2ccc(OC)c(OC)c2)[C@H]1COC)OCO3 [Hypophyllanthin],24.8,–
CC/C=C/CC1C(=O)CCC1CC(=O)OC (stereo not drawn) [Methyl 2-(3-oxo-2-(pent-2-en-1-yl)cyclopentyl)acetate],22,–
COc1cc2c3c(c1OC)-c1ccccc1C[C@H]3NCC2 [N-Nornuciferine],12,–
C[C@H](CCC(=O)O)[C@H]1CC[C@H]2[C@@H]3C(=O)C[C@@H]4C[C@H](O)CC[C@]4(C)[C@H]3CC[C@]12C [7-Ketolithocholic acid],20.5,–
CC(C)=CCc1c(-c2ccc(O)cc2O)oc2c3c(cc(O)c2c1=O)OC(C)(C)C=C3 [Morusin],12.3,–
C[C@H]1CC[C@@H]2[C@@H](C)[C@H]3[C@H](C[C@H]4[C@@H]5CC=C6C[C@@H](O)CC[C@]6(C)[C@H]5CC[C@]34C)N2C1 [Solanidine],24.2,–
CC1(C)CC[C@]2(C(=O)O)CC[C@]3(C)C(=CC[C@@H]4[C@@]5(C)CC[C@H](O[C@@H]6OC[C@H](O)[C@H](O)[C@H]6O)[C@@](C)(CO)[C@@H]5CC[C@]43C)[C@@H]2C1 [Cauloside A],4.8,–
N#CCCN [β-Aminopropionitrile],23.5,–
COc1cc(/C=C/C(=O)O)ccc1O [(E)-Ferulic acid],–,0
c1cncc(C2CCCCN2)c1 (racemic) [(±) Anabasine],46.6,–
C[C@H]1O[C@H](O[C@H]2[C@H](O)[C@@H](O)[C@@H](O[C@H]3[C@H](O)[C@@H](O)C(O)O[C@@H]3CO)O[C@@H]2CO)[C@H](O)[C@@H](O)[C@@H]1N[C@H]1C=C(CO)[C@@H](O)[C@H](O)[C@H]1O (stereo partly drawn) [Acarbose],12.4,–

# Molecules above containing a carbonyl joined to an NH by a bond outside any ring:
SMILES,229E Inhibition rate [%],"229E Inhibition rate (229E Inhibition rate, 24 h) [%]"
CC(=O)N[C@@H](Cc1c[nH]c2ccccc12)C(=O)O [N-Acetyl-L-tryptophan],7.5,–
CC(=O)N[C@@H](CC(C)C)C(=O)N[C@@H](CC(C)C)C(=O)N[C@H](C=O)CCCNC(=N)N [Leupeptin (hemisulfate)],0,–
